These results are taken from PubChem BioAssay AID330 (DTP/NCI, 2004).

Each structure is given as a SMILES string. The list shows only some results of the screen, not a fair sample: it gathers tests that were run many times, whatever their T/C, doses with no T/C, and many T/C values between a quarter and a half above the control. Further doses and runs are listed elsewhere. T/C: endpoint of the treated group in % of that of the vehicle group. Some doses have a count of surviving animals in place of a T/C: the source holds a T/C of zero for them, seemingly a mark for toxic or unscored doses. Some survivor counts are full or nearly so, which does not show that the dose was tolerated: survival well below the control is almost never listed, so the zero probably covers shortened survival too. Counts of survivors are from the toxicity check (mostly the fifth day) where no day follows; animals may have died later. Schedule codes are those of the source, read here as Q, the interval in days (D) or hours (H), X, the number of doses. Additions like (4×) give the number of equal values in this list. Some doses were run more than once; their values stand side by side, smallest first. For survival time, the PubChem record calls one and a half times the control and up active, and a quarter to a half above the control has no call in these data; cut-offs in other NCI protocols can differ.

This assay has as its system P388 leukemia ip, CD2F1 mice, survival T/C. Put plainly: NCI In Vivo Anticancer Drug Screen. Data for tumor model P388 Leukemia (intraperitoneal) in CD2F1 (CDF1) mice. To be noted: T/C endpoint: median survival time, higher T/C = longer survival.
Setting [1] is: dose: 200.0 mg/kg/injection, schedule: Q01DX005 (ip), vehicle: saline with Tween-80.
Setting [2] is: dose: 50.0 mg/kg/injection, schedule: Q01DX005 (ip), vehicle: Klucel (hydroxypropylcellulose) (HPC).
[3] abbreviates: dose: 200.0 mg/kg/injection, schedule: Q01DX009 (ip), vehicle: saline with Tween-80.
Where [4] appears, read: dose: 200.0 mg/kg/injection, schedule: Q01DX009 (ip), vehicle: Klucel (hydroxypropylcellulose) (HPC).
Setting [5] is: dose: 200.0 mg/kg/injection, schedule: Q04DX003 (ip), vehicle: saline with Tween-80.
[6] abbreviates: dose: 200.0 mg/kg/injection, schedule: Q01DX005 (ip), vehicle: Klucel (hydroxypropylcellulose) (HPC).
[7] abbreviates: dose: 200.0 mg/kg/injection, schedule: Q01DX009 (ip), vehicle: saline.
[8] abbreviates: dose: 240.0 mg/kg/injection, schedule: Q01DX005 (ip), vehicle: saline with Tween-80.
[9] abbreviates: dose: 100.0 mg/kg/injection, schedule: Q01DX005 (ip), vehicle: saline with Tween-80.

For `CN(C)CCC(OC(=O)C(c1ccccc1)c1ccccc1)c1ccccc1` (stereo not drawn), under setting [1], the survivor count is on record as 0 of 5.

On to `Cc1nc2ccccc2c(=O)n1/N=C1/C(=O)Nc2ccccc21`, for which the survivor count under setting [2] is recorded as 6 of 6. On to `O=C(c1ccccc1)N1OC2C=CC1C2` (stereo not drawn), for which the survivor count (dose: 100.0 mg/kg/injection, schedule: Q01DX009 (ip), vehicle: saline with Tween-80) was 3 of 6 and the survivor count under setting [3] is 0 of 6. For `O=C(NCCN1CCCCC1)c1ccc(Cl)cc1Cl`, the survivor count under setting [4] is recorded as 2 of 6. For the compound `CC(=O)NC(SC12CC3CC(CC(C3)C1)C2)C(/C=C/CC=O)OC(C)=O` (stereo not drawn), the survivor count was 5 of 6 (dose: 100.0 mg/kg/injection, schedule: Q04DX003 (ip), vehicle: Klucel (hydroxypropylcellulose) (HPC)); 0 of 6 (dose: 200.0 mg/kg/injection, schedule: Q04DX003 (ip), vehicle: Klucel (hydroxypropylcellulose) (HPC)); 0 of 6 (dose: 400.0 mg/kg/injection, schedule: Q04DX003 (ip), vehicle: Klucel (hydroxypropylcellulose) (HPC)). In the case of `C=CCOCC1CO1` (stereo not drawn), under setting [5], the T/C was 127 % of control. Also, the survivor count (dose: 400.0 mg/kg/injection, schedule: Q01DX009 (ip), vehicle: saline) is on record as 2 of 6.

Regarding `CN(C)C(=O)Nc1cccc2c(NC(=O)N(C)C)cccc12`, the T/C under setting [4] is 128 % of control.

Turning to `[Se]=P(c1ccccc1)(N1CC1)N1CC1`, the survivor count by setting is: (dose: 100.0 mg/kg/injection, schedule: Q04DX003 (ip), vehicle: saline with Tween-80) 1 of 6; under setting [5], 0 of 6.

As for `O=C(O)C(=Cc1cccc2ccccc12)C(=O)O`, the survivor count under setting [6] is recorded as 0 of 6.

On to `O=C1NC(=O)C2C3OC(C12)C1C2C(=O)NC(=O)C2C31` (stereo not drawn), for which the survivor count under setting [1] is 4 of 6. In the case of `C[N+](C)(C)CCC(=O)c1ccc(O)cc1`, the survivor count (dose: 50.0 mg/kg/injection, schedule: Q01DX009 (ip), vehicle: saline) is on record as 1 of 6; the survivor count (dose: 100.0 mg/kg/injection, schedule: Q01DX009 (ip), vehicle: saline) was 0 of 6; the survivor count under setting [7] is 0 of 6. Turning to `O=c1n2ccccc2nc2nc3ccccc3n12`, the survivor count under setting [8] is 6 of 6. On to `CCC1(C)CCC2(C)C(CCC3C4(C)CCCC32OC4=O)C1` (stereo not drawn), for which the survivor count under setting [2] was 2 of 5. For the compound `CC1(C)Nc2cccc3c(N=Nc4ccc(N=Nc5ccccc5)c5ccccc45)ccc(c23)N1`, the T/C under setting [3] is 125 % of control.

Take `C[n+]1cc2c3ccccc3ccc2c2ccccc21`: the survivor count is on record as 5 of 6 (dose: 50.0 mg/kg/injection, schedule: Q04DX003 (ip), vehicle: distilled water + Tween-80); 0 of 6 (dose: 100.0 mg/kg/injection, schedule: Q04DX003 (ip), vehicle: distilled water + Tween-80); 2 of 6 (dose: 200.0 mg/kg/injection, schedule: Q04DX003 (ip), vehicle: distilled water + Tween-80); 2 of 6 (dose: 400.0 mg/kg/injection, schedule: Q04DX003 (ip), vehicle: distilled water + Tween-80).

Take `O=CC(=C\c1ccco1)/C(C=O)=C\c1ccco1`: the survivor count under setting [1] is listed as 0 of 6.

Consider `CN(C)c1ccc2c(N(C)C)cc(N(C)C)[n+](C)c2c1`, for which the survivor count (dose: 3.12 mg/kg/injection, schedule: Q01DX009 (ip), vehicle: distilled water + Tween-80 + alcohol) is 0 of 6; the survivor count (dose: 6.25 mg/kg/injection, schedule: Q01DX009 (ip), vehicle: other) is listed as 2 of 6; the survivor count (dose: 12.5 mg/kg/injection, schedule: Q01DX009 (ip), vehicle: other) is on record as 0 of 6; the survivor count (dose: 25.0 mg/kg/injection, schedule: Q01DX009 (ip), vehicle: other) is recorded as 0 of 6; the survivor count (dose: 50.0 mg/kg/injection, schedule: Q01DX009 (ip), vehicle: other) was 0 of 6; the survivor count (dose: 100.0 mg/kg/injection, schedule: Q01DX009 (ip), vehicle: other) is 0 of 6. Further, the survivor count (dose: 200.0 mg/kg/injection, schedule: Q01DX009 (ip), vehicle: other) is on record as 0 of 6. With `CCC/C=C(/C=N/Nc1ccc([N+](=O)[O-])cc1[N+](=O)[O-])CC`, the survivor count is 5 of 5 under setting [9] and 5 of 5 under setting [1]. For the compound `CC(=O)OCC1OC(Sc2ccc([N+](=O)[O-])cc2)C(OC(C)=O)C(OC(C)=O)C1OC(C)=O` (stereo not drawn), the survivor count was 6 of 6 (dose: 60.0 mg/kg/injection, schedule: Q01DX005 (ip), vehicle: saline with Tween-80); 6 of 6 (dose: 120.0 mg/kg/injection, schedule: Q01DX005 (ip), vehicle: saline with Tween-80); 6 of 6 under setting [8]. On to `COc1ccc2cc(N3CCCC3)ccc2c1`, for which the survivor count (dose: 200.0 mg/kg/injection, schedule: Q04DX003 (ip), vehicle: saline) is listed as 6 of 6. As to `Cc1nc(-c2ccccc2)oc1C(N)=O`, under setting [4], the survivor count was 6 of 6.

As to `COc1cc2c[n+](C)c3c4cc(OC)c(OC)cc4c(OCc4ccccc4)cc3c2cc1OC`, the T/C was 128 % of control (dose: 12.5 mg/kg/injection, schedule: Q01DX005 (ip), vehicle: saline with Tween-80); 139 % of control (dose: 25.0 mg/kg/injection, schedule: Q01DX005 (ip), vehicle: saline with Tween-80, evaluated on day 20); 142 % of control (dose: 25.0 mg/kg/injection, schedule: Q01DX005 (ip), vehicle: saline with Tween-80, evaluated on day 30). Besides, the survivor count is, setting by setting: (dose: 50.0 mg/kg/injection, schedule: Q01DX005 (ip), vehicle: saline with Tween-80) 6 of 6 (2×); under setting [9], 2 of 6; under setting [1], 0 of 6. As to `CN(C)CCCOc1nc2c(c(=O)n(C)c(=O)n2C)n1C` (tested in a mixture with another compound), the T/C reads like this: (dose: 50.0 mg/kg/injection, schedule: Q01DX005 (ip), vehicle: Klucel (hydroxypropylcellulose) (HPC), evaluated on day 20) 128 % of control; (dose: 50.0 mg/kg/injection, schedule: Q01DX005 (ip), vehicle: Klucel (hydroxypropylcellulose) (HPC), evaluated on day 30) 130 % of control. Further, the survivor count (dose: 100.0 mg/kg/injection, schedule: Q01DX005 (ip), vehicle: Klucel (hydroxypropylcellulose) (HPC)) was 5 of 6 and the survivor count under setting [6] is reported as 0 of 6. Turning to `CC(C)NCC(O)COc1ccccc1C1CC1` (stereo not drawn), under setting [7], the survivor count is 0 of 6. As for `[Cu+2].[O-]/C(=N\N=C/c1ccco1)c1ccccc1O.[O-]/C(=N\N=C/c1ccco1)c1ccccc1O.[OH3+].[OH3+]`, the survivor count is reported as 6 of 6 (dose: 100.0 mg/kg/injection, schedule: Q04DX002 (ip), vehicle: saline with Tween-80) and 5 of 6 (dose: 200.0 mg/kg/injection, schedule: Q04DX002 (ip), vehicle: saline with Tween-80). Take `CCN(C(=S)Nc1cccc(C(F)(F)F)c1)c1ccccc1`: the survivor count under setting [4] is given as 2 of 6. As for `O=C1OC(=O)c2cc([N+](=O)[O-])cc3cccc1c23`, the survivor count (dose: 400.0 mg/kg/injection, schedule: Q01DX005 (ip), vehicle: saline with Tween-80) was 3 of 6.

In the case of `O=C1CCC2CN3CCc4c([nH]c5ccccc45)C3CC2C1` (stereo not drawn), the survivor count under setting [8] is 4 of 6. For `ONc1ccccc1C(F)(F)F`, under setting [7], the survivor count is listed as 0 of 6.

Consider `CC1=C(O)C(=O)C=C2C1=CC=C1[C@@]2(C)CC[C@@]2(C)[C@@H]3C[C@](C)(C(=O)O)CC[C@]3(C)CC[C@]12C`, for which the survivor count (dose: 3.12 mg/kg/injection, schedule: Q01DX009 (ip), vehicle: suspension in saline) is given as 6 of 6; the survivor count (dose: 6.25 mg/kg/injection, schedule: Q01DX009 (ip), vehicle: suspension in saline) is on record as 6 of 6; the survivor count (dose: 12.5 mg/kg/injection, schedule: Q01DX009 (ip), vehicle: suspension in saline) was 5 of 6 and 6 of 6; the survivor count (dose: 25.0 mg/kg/injection, schedule: Q01DX009 (ip), vehicle: suspension in saline) is 0 of 6 and 2 of 6. With `N#Cc1nc(CC(=O)c2ccc(Cl)cc2Cl)c(CC(=O)c2ccc(Cl)cc2Cl)nc1C#N`, the survivor count (dose: 240.0 mg/kg/injection, schedule: Q01DX005 (ip), vehicle: saline) is 1 of 6.

Turning to `CCOC(=O)C(C)NO` (stereo not drawn), the survivor count under setting [7] is recorded as 6 of 6.
